Patent US20210145802A1, “THERAPY FOR OPHTHALMOLOGICAL CONDITIONS” (WREN THERAPEUTICS LIMITED, priority 2018, published 2021)
At least one structure is not confirmed: it was looked up by name or label, or the drawing left a doubt.

Protein sequences, listed by entry. Tags and fused reporters are not part of them. Residues count along the entry.
UniProt P05067, 671-713: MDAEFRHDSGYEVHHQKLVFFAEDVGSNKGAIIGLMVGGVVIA

Target: T1, Aβ42 (Homo sapiens, UniProt P05067)
T1 construct: […]; made in house; host or cells: E. coli BL21 Gold (DE3)
Test: ThT kinetic assay of Aβ42 fibril formation (unseeded)
Assay type: biochemical
Conditions: 2 μM Aβ42; 5× drug:protein concentration
From the text: The recombinant Aβ(M1-42) peptide ([…]-SNKGAIIGLMVGGVVIA [SEQ ID NO: 1]), here called Aβ42, was expressed in the E. coli BL21 Gold (DE3) strain (Stratagene, CA, U.S.A.) and purified as described previously with slight modifications. Briefly, the purification procedure involved sonication of E. coli cells, dissolution of inclusion bodies in 8 M urea, and ion exchange in batch mode on diethylaminoethyl cellulose resin and lyophylization. The lyophilized fractions were further purified using Superdex 75 HR 26/60 column (GE Healthcare, Buckinghamshire, U.K.) and eluates were analyzed using SDS-PAGE for the presence of the desired protein product. The fractions containing the recombinant protein were combined, frozen using liquid nitrogen, and lyophilized again.
Except for Netoglitazone, which was custom synthesised by GVK BIO, all small molecules were purchased with a purity greater than 99%. Small molecules were first solubilized in 100% DMSO to a concentration of 5 mM, and then diluted in the peptide solution to reach a final DMSO concentration of maximum 1-3%. We verified that the addition of DMSO in the reaction mixture has no effect on Aβ42 aggregation.
Solutions of monomeric peptides were prepared by dissolving the lyophilized Aβ42 peptide in 6 M GuHCl. Monomeric forms were purified from potential oligomeric species and salt using a Superdex 75 10/300 GL column (GE Healthcare) at a flowrate of 0.5 mL/min, and were eluted in 20 mM sodium phosphate buffer, pH 8 supplemented with 200 μM EDTA and 0.02% NaN3. The centre of the peak was collected, and the peptide concentration was determined from the absorbance of the integrated peak area using ε280=1490 L mol^−1 cm^−1. The obtained monomer was diluted with buffer to the desired concentration and supplemented with 20 μM Thioflavin T (ThT) from a 1 mM stock. All samples were prepared in low binding Eppendorf tubes on ice using careful pipetting to avoid introduction of air bubbles. […]

| SMILES | delay of Aβ42 aggregation |
| --- | --- |
| CCc1ccc(CCOc2ccc(CC3SC(=O)NC3=O)cc2)nc1 (stereo not drawn) [Pioglitazone] | little to no delay |
| CN(CCOc1ccc(CC2SC(=O)NC2=O)cc1)c1ccccn1 (stereo not drawn) [Rosiglitazone] | little to no delay |
| Cc1c(C)c2c(c(C)c1O)CCC(C)(COc1ccc(CC3SC(=O)NC3=O)cc1)O2 (stereo not drawn) [Troglitazone] | observed to delay |
